Some of the results follow. This data set is noisy: repeats of one test often differ as much as different tests do.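 ATM8/balancer (normal ATM) heterozygous flies were crossed on treated food; parents laid eggs 5–6 days, offspring developed ~12 days, so parents and larvae ingested compound. Readout: fraction of emerged adults homozygous for ATM8 versus 2% DMSO controls. Compounds were neutral at 10–20% homozygotes, harmful below 10%, helpful above 20%.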

This test relates to Drosophila melanogaster ATM8 (temperature-sensitive ATM allele). The test is described as follows: fraction of eclosed F1 progeny that are homozygous ATM8 (rescue of developmental lethality); higher = more rescue of ATM8 developmental lethality; extreme values may be limits of the assay. The settings on record: compound concentration applied to food 0.2 mM; 21 °C.
In the case of `Oc1ccc(Cl)cc1`, the “fraction of eclosed F1 progeny that are homozygous ATM8” value (shortened to “fraction”) turned out to be 0.256. `CC1=CCC[C@@H]2C1(C)CCC(C)[C@@]2(C)CC/C(C)=C/C[n+]1cn(C)c2c(N)ncnc21` (stereo partly drawn): the “fraction” value worked out at 0.0256. `C=C1CC[C@H](O)C/C1=C/C=C1\CCC[C@]2(C)[C@@H]([C@H](C)CCCC(C)C)CC[C@@H]12`: the “fraction” value is 0.118. `Cc1nccnc1N1CCCCC1`: the “fraction” value came out at 0.193.

Take `CC(C)c1c(CN(C)C(C)Cc2ccccc2)n(C)n(-c2ccccc2)c1=O` (stereo not drawn): the “fraction” value was 0.0714. The same measure for `N#CCCN`: 0.109. For the molecule `NNCCc1ccccc1`, the “fraction” value turned out to be 0.174. Turning to `CCCCN(CCCC)CCCOC(=O)c1ccc(N)cc1`, the “fraction” value amounted to 0.06. In the case of `COC(=O)Nc1nc2cc(C(=O)c3cccs3)ccc2[nH]1`, the “fraction” value was 0.129. The same measure for `Cc1ccc(C(=O)c2ccc(CC(=O)O)n2C)cc1`: 0.226; for `O=C(O)CN1C(=O)c2cccc3cccc(c23)C1=O`: 0.212; for `FC(F)(F)C(Cl)Br` (stereo not drawn): 0.0488. The same measure for `CC(=O)OCC(=O)[C@@]1(O)CC[C@H]2[C@@H]3CCC4=CC(=O)C=C[C@]4(C)[C@@]3(Cl)[C@@H](Cl)C[C@@]21C`: 0.118; for `O=C(O)CCCCCCCC(=O)O`: 0.129. Take `CC(=O)O[C@@H]1C[C@H]2C(C)(C)C(=O)CC[C@]2(C)[C@H]2CC[C@@]3(C)[C@H](c4ccoc4)OC(=O)[C@H]4O[C@]43[C@@]21C`: the “fraction” value turned out to be 0.0789. As for `CC(=O)OCC(=O)[C@@]1(O)CC[C@H]2[C@@H]3CCC4=CC(=O)CC[C@]4(C)[C@@]3(F)[C@@H](O)C[C@@]21C`, the “fraction” value worked out at 0.123. Turning to `CC12CCC3C(CC3(C)C)C(C)(CCC1=O)O2` (stereo not drawn), the “fraction” value turned out to be 0.168.

As to `C=CC(N)CCC(=O)O` (stereo not drawn), the “fraction” value was 0.0698. Consider `CCCCCCCCCCCCCCCC(=O)OC/C=C(C)/C=C/C=C(C)/C=C/C1=C(C)CCCC1(C)C`, for which the “fraction” value was determined as 0.0606. Regarding `COS(C)(=O)=O`, the “fraction” value was 0.238. The same measure for `NS(=O)(=O)c1cc(C2(O)NC(=O)c3ccccc32)ccc1Cl` (stereo not drawn): 0.

In the case of `CCN[C@H]1CN(CCCOC)S(=O)(=O)c2sc(S(N)(=O)=O)cc21`, the “fraction” value was found to be 0.

For the molecule `CC(=O)OCC(=O)[C@@]1(O)CC[C@H]2[C@@H]3CCC4=CC(=O)CC[C@]4(C)[C@H]3[C@@H](O)C[C@@]21C`, the “fraction” value was found to be 0.108.

Consider `CC(C)c1c(C(=O)Nc2ccccc2)c(-c2ccccc2)c(-c2ccc(F)cc2)n1CC[C@@H](O)C[C@@H](O)CC(=O)O`, for which the “fraction” value worked out at 0.0612. With `O=c1[nH]c(=O)n(Cl)c(=O)n1Cl`, the “fraction” value turned out to be 0.189.

Take `OC(Cn1cncn1)(Cn1cncn1)c1ccc(F)cc1F`: the “fraction” value came to 0.0323. Take `NCCc1c[nH]cn1`: the “fraction” value came out at 0.265. `CC(=O)OC1CCC23C(=O)OC45CCC(C6=CC(=O)OC6)C4(C)CCC2C5CCC3(O)C1` (stereo not drawn): the “fraction” value came out at 0.27. The same measure for `CC(C)CCC[C@@H](C)[C@H]1CC[C@H]2[C@@H]3CC=C4C[C@@H](OC(=O)CCC(=O)O)CC[C@]4(C)[C@H]3CC[C@]12C`: 0.211; for `CC[N+](C)(C)c1cccc(O)c1`: 0.179; for `CC(=O)[C@@]1(O)CC[C@H]2[C@@H]3C=C(Cl)C4=CC(=O)[C@@H]5C[C@@H]5[C@]4(C)[C@H]3CC[C@@]21C`: 0.25. Turning to `Nc1[nH]cnc2ncnc1-2`, the “fraction” value was 0.0526.

Regarding `COc1c(-c2coc3cc4c(cc3c2=O)CC(O)C(C)(C)O4)ccc2c1C=CC(C)(C)O2` (stereo not drawn), the “fraction” value is 0.0952. Turning to `C[C@@H](O)CN(CCN(C[C@@H](C)O)C[C@@H](C)O)C[C@@H](C)O`, the “fraction” value came out at 0.

For `NC(=O)CN1CCCC1=O`, the “fraction” value was 0.146. Regarding `COc1cc(C(=O)OCCCN2CCCN(CCCOC(=O)c3cc(OC)c(OC)c(OC)c3)CC2)cc(OC)c1OC`, the “fraction” value was 0.186. `CC[N+](C)(CC)CCOC(=O)C(O)(c1ccccc1)C1CCCCC1` (stereo not drawn): the “fraction” value worked out at 0.125. In the case of `O=C1c2c(O)cccc2Cc2cccc(O)c21`, the “fraction” value was 0.025.

In the case of `O=S(=O)(O)c1cc(N=C=S)ccc1/C=C/c1ccc(N=C=S)cc1S(=O)(=O)O`, the “fraction” value was found to be 0.3.

With `CCCCCCCCCCCCCCCC(=O)OCC(O)CO` (stereo not drawn), the “fraction” value is 0.135. Regarding `Cc1[nH]ccc2c1[nH]c1cc(=O)ccc12`, the “fraction” value was found to be 0.175. Turning to `CC(=O)Oc1ccccc1C(=O)Nc1ncc([N+](=O)[O-])s1`, the “fraction” value was found to be 0.104. For the molecule `CC1(C)OC(=O)C(OCC2CC2)=C1c1ccc(S(C)(=O)=O)cc1`, the “fraction” value came out at 0.293. With `CCCCC(O)c1ccccc1` (stereo not drawn), the “fraction” value came out at 0.203. As to `O=c1cc(-c2ccccc2)oc2c(O)c(O)ccc12`, the “fraction” value was determined as 0.143. `CCCCOCCOCCOCc1cc2c(cc1CCC)OCO2`: the “fraction” value amounted to 0.211. With `CCN(CC)CCOC(=O)C1(C2CCCCC2)CCCCC1`, the “fraction” value was determined as 0.0263. For `COc1ccc([C@@H]2CC(=O)c3c(O)cc(O)cc3O2)cc1O`, the “fraction” value was 0.109. Consider `CC(=O)ON(CCN(OC(C)=O)OC(C)=O)OC(C)=O`, for which the “fraction” value was found to be 0.093. Turning to `C[N+]1(C)CCC(OC(=O)C(O)(c2ccccc2)C2CCCC2)C1` (stereo not drawn), the “fraction” value was 0.04. With `CCCCCCCCCCCCCCCCCCOCC(O)CO` (stereo not drawn), the “fraction” value was found to be 0.

In the case of `COC1=C[C@@H](C)[C@@H]2C[C@H]3OC(=O)C[C@H]4C(C)=C(OC)C(=O)[C@H]([C@@]2(C)C1=O)[C@@]34C`, the “fraction” value turned out to be 0.34. Take `N#Cc1ccc(C(c2ccc(C#N)cc2)n2cncn2)cc1`: the “fraction” value came to 0.0196. For `Clc1ccc(CCC(Cn2ccnc2)Sc2c(Cl)cccc2Cl)cc1` (stereo not drawn), the “fraction” value is 0.444. `CCCCCc1c2c(cc(O)c1C(=O)O)OC(=O)c1c(cc(OC)cc1C(=O)CCCC)O2`: the “fraction” value stood at 0.345. In the case of `CC(C)CC(N)=O`, the “fraction” value was 0.224. Consider `N=C(NCCCCCCNC(=N)NC(=N)Nc1ccc(Cl)cc1)NC(=N)Nc1ccc(Cl)cc1`, for which the “fraction” value worked out at 0.

Consider `NCc1ccccc1CC(=O)N[C@@H]1C(=O)N2C(C(=O)O)=C(CSc3nnnn3CC(=O)O)CS[C@H]12`, for which the “fraction” value was 0.171.

As for `COc1c2occc2cc2ccc(=O)oc12`, the “fraction” value was determined as 0.111.

Regarding `Oc1ccc2ccccc2c1` [beta-NAPHTHOL], the “fraction” value was determined as 0.0816. Turning to `COC(=O)c1cc(O)c(=O)c2c(O)c(O)ccc2c1`, the “fraction” value is 0.0256. For the molecule `O=Cc1ccc(O)c(O)c1O`, the “fraction” value is 0.069. As to `CC(=O)Oc1ccc2c(c1OC(C)=O)OCC1(O)Cc3c(cc(OC(C)=O)c(OC(C)=O)c3OC(C)=O)C21` (stereo not drawn), the “fraction” value was 0.195. `O=C(O)Cc1ccc(-c2ccccc2)cc1`: the “fraction” value came out at 0.296. Consider `O=C(NC[C@H]1CN(c2ccc(N3CCOCC3=O)cc2)C(=O)O1)c1ccc(Cl)s1`, for which the “fraction” value turned out to be 0.149. The same measure for `C[C@@H]1C[C@H]2[C@@H]3C[C@H](F)C4=CC(=O)C=C[C@]4(C)[C@@]3(F)[C@@H](O)C[C@]2(C)[C@@]1(O)C(=O)CO`: 0.163; for `CC[C@H](/C=C/[C@@H](C)[C@H]1CC[C@H]2[C@@H]3CC=C4C[C@@H](O)CC[C@]4(C)[C@H]3CC[C@]12C)C(C)C`: 0.312. The same measure for `O=C(O)c1cn(-c2ccc(F)cc2)c2cc(N3CCNCC3)c(F)cc2c1=O`: 0.212. `C[C@@H](CO)NC(=O)[C@@H]1C=C2c3cccc4[nH]cc(c34)C[C@H]2N(C)C1`: the “fraction” value turned out to be 0. The same measure for `Clc1ccc(C(OCCN2CCCCC2)c2ccccc2)cc1` (stereo not drawn): 0.255; for `COC(=O)[C@H](c1ccccc1Cl)N1CCc2sccc2C1`: 0.25; for `COCCCC/C(=N\OCCN)c1ccc(C(F)(F)F)cc1`: 0.

As to `COc1cc(OC)c2c(=O)c(OC)c(-c3ccccc3)oc2c1`, the “fraction” value turned out to be 0.0952.

With `C[C@H](N[C@@H](CCc1ccccc1)C(=O)O)C(=O)N1CCC[C@H]1C(=O)O`, the “fraction” value is 0.0317. For `CN(C)[C@@H]1C(O)=C(C(N)=O)C(=O)[C@@]2(O)C(O)=C3C(=O)c4c(O)cccc4[C@@](C)(O)[C@H]3C[C@@H]12`, the “fraction” value is 0.121. The same measure for `Oc1c(Br)cc(Br)c2cccnc12`: 0.119; for `C[C@]12CC[C@H](O)C[C@H]1CC[C@@H]1[C@@H]2C[C@@H](O)[C@]2(C)[C@@H](C3=CC(=O)OC3)CC[C@]12O`: 0.176.

Consider `COc1ccc(-c2coc3cc(O)ccc3c2=O)cc1`, for which the “fraction” value stood at 0.093. Regarding `NCCc1c[nH]c2ccccc12`, the “fraction” value was 0.25. Consider `NC(=O)c1ccccc1O`, for which the “fraction” value amounted to 0.2. With `COc1ccc(C(=O)CCC(=O)O)c2ccccc12`, the “fraction” value amounted to 0.22.

Turning to `Nc1nc(F)nc2c1ncn2[C@@H]1O[C@H](COP(=O)(O)O)[C@@H](O)[C@@H]1O`, the “fraction” value is 0.113. The same measure for `CCOC(=O)N1CCC(=C2c3ccc(Cl)cc3CCc3cccnc32)CC1`: 0.224; for `COc1cc2c(cc1OC)C1C(=O)c3c(O)cc4c(c3OC1CO2)C=CC(C)(C)O4` (stereo not drawn) [alpha-TOXICAROL (dl)]: 0.143; for `CC[C@H]1OC(=O)[C@H](C)[C@@H](O[C@H]2C[C@@](C)(OC)[C@@H](O)[C@H](C)O2)[C@H](C)[C@@H](O[C@@H]2O[C@H](C)C[C@H](N(C)C)[C@H]2O)[C@](C)(O)C[C@@H](C)C(=O)[C@H](C)[C@@H](O)[C@]1(C)O`: 0.0323. Consider `CC(C(=O)O)c1ccc(CC2CCCC2=O)cc1` (stereo not drawn), for which the “fraction” value was 0.175. On to `CC1=C(/C=C/C(C)=C/C=C/C(C)=C/C=C/C=C(C)/C=C/C=C(C)/C=C/C2=C(C)CCCC2(C)C)C(C)(C)CCC1` [beta-CAROTENE [2mM]], for which the “fraction” value came to 0.316. The same measure for `CC(=O)OCC(=O)[C@H]1CC[C@H]2[C@@H]3CC=C4C[C@@H](O)CC[C@]4(C)[C@H]3CC[C@]12C`: 0.255. `NC(=O)C[S+]([O-])C(c1ccccc1)c1ccccc1` (stereo not drawn): the “fraction” value was determined as 0.324. `CC1=CC(=O)[C@H]2C(C)(C)CCC[C@]2(C)[C@@]1(O)CCc1ccoc1`: the “fraction” value was found to be 0.0847. Regarding `NCCCCC(=O)O`, the “fraction” value came out at 0.0909. `c1ccc(CC2=NCCN2)cc1`: the “fraction” value was determined as 0.217.

With `OCCN1CCN(CCCN2c3ccccc3Sc3ccc(C(F)(F)F)cc32)CC1`, the “fraction” value is 0. As for `CC(C)(Oc1ccc(CCNC(=O)c2ccc(Cl)cc2)cc1)C(=O)O`, the figure is 0.25; as for `O=C(O)CCc1nc(-c2ccccc2)c(-c2ccccc2)o1`, 0.176; as for `CC1(C)C=Cc2c(c3c(c4c(=O)c(-c5ccc(O)cc5)coc24)OC(C)(C)CC3)O1`, 0.115. The same measure for `CC(C)[C@@H](C)/C=C/[C@@H](C)[C@H]1CC[C@H]2C3=CC=C4C[C@@H](O)CC[C@]4(C)[C@H]3CC[C@]12C`: 0.0244.

Take `O=C1c2ccccc2C(=O)C1c1ccccc1`: the “fraction” value was found to be 0.188. Regarding `Clc1ccc2c(c1)C(N1CCNCC1)=Nc1ccccc1O2`, the “fraction” value stood at 0. As to `Cc1ccc(N(CC2=NCCN2)c2cccc(O)c2)cc1`, the “fraction” value is 0.105. Consider `COc1cc2occ(-c3ccc(OC)c(OC)c3OC)c(=O)c2cc1OC`, for which the “fraction” value stood at 0.0299. Consider `CCc1ccc(CCOc2ccc(CC3SC(=O)NC3=O)cc2)nc1` (stereo not drawn), for which the “fraction” value stood at 0.129. The same measure for `O=C(O)c1ccccc1-c1c2cc(I)c(=O)c(I)c-2oc2c(I)c(O)c(I)cc12`: 0.0484.

The values above are taken from the supplement of paper PMC5770031.
